Source: publication PMC12370185
This is one part of the list. For some of these results: At the low end of the ranking, values are background and their order means little.

Columns and labels:
Conditions in all cases: 10 mM Tris-Cl pH 7.5, 50 mM NaCl, 1 mM DTT, 0.25 mg/ml BSA, 2 mM MgCl2, 0.025% Nonidet P-40, 5% glycerol; 28 nM nucleosome library; 10 min on ice then 30 min …; high values mean tight binding; double strand, one strand shown
KLF4 + histone octamer = experiment: EMSA with sequencing
SOX2 + histone octamer = experiment: EMSA with sequencing
[1] = tested on: c-MYC + MAX + histone octamer; experiment: EMSA with sequencing
OCT4 + histone octamer = experiment: Pioneer-seq (competitive nucleosome EMSA with sequencing)

| Sequence | binding signal (log2 relative supershift) (KLF4 + histone octamer) | binding signal (log2 relative supershift) (SOX2 + histone octamer) | binding signal (log2 relative supershift) [1] | binding signal (log2 relative supershift) (OCT4 + histone octamer) |
| --- | --- | --- | --- | --- |
| GATGGACCCTATACGCGGCCTGAGGCCAGAAGGGGCCACTTTGGGCTAATTAGAACCACTGAGCAGTCTGAAGACTTCAATTATGCACATGGCAGGACAGTGGGTGCCTCCCCACGTGGGTGGGAGATTACTGCCGCTGGCCGGGCTGTCGCTCTCATGCAAAATATTAAGAAAAGGCAGGGCCCACAGCAATTCTCATCTGGCTGAAATTGCCAGTCGGATAGTGTTCC | 1.68 | 0.149 | 0.491 | -0.328 |
| GATGGACCCTATACGCGGCTTTTCAAACACATGAGGTCCTCATGGTTGGGTAATGATCTTTTATTCACTCCTAATTGACTCACTGCTCTGTTTCCACAATGCCCACAAGTCTTTGTCATTCTACTCCTGGCTTCAACCTGCCCACCTCTCTTTGACCTCACTTAAAAGACTGTGGCCAAATTCCTTTCTTTCCACCTCAAAATTCCTATGTGCCAGTCGGATAGTGTTCC | 0.945 | 1.42 | 0.61 | -0.197 |
| GATGGACCCTATACGCGGCGTTTTTGTTGTTGGACTAAGATTGTATGTGACAGTGTTTGAGATTGTGCATGACAGTGTGTGTGATTATGTGAGACTGAGGGAGATGGTGTGACTTAGCACTGTATGTCATCCCGACAGTGAGTGTGACAGTGTGACTGAGAATGGCCTTATATGACCCATTGTGAGAGCAGGGCGGGCTACAATGTGGGGTGCCAGTCGGATAGTGTTCC | 2 | 1.85 | 0.448 | -0.69 |
| GATGGACCCTATACGCGGCCTGCCTGCCTCTGCCTTCTTGATCCTGATGACACCCAGGCCTGCAGCAAAAATCTCTGAGTATCGAAAGGCAAAGTCAGACAGAACAATGACACCAATACTGCATTATTCATCCATTCATATGCTCAGGCAGCTTGCATTTATTGAGTACCTTTGTATACAGCATTGAGCCAGCAGCTGTGAGAATCGCAATGCCAGTCGGATAGTGTTCC | 1.94 | 0.525 | 0.562 | -0.168 |
| GATGGACCCTATACGCGGCACCCACAATCATGGCAGTAGCTGGAGATAGCAGGAAGGAAAGACAATGTGTTGGCCAAGGGGTACCTCACTAACTTTCCATCCCACGACTCATCCACCCTTTATCCACCCATCCATCTATCCACCCACTCATTCATTCATTTGCTTATTTATTGGCTCATCTCTCCTTTTGTCTACCCACTCATTCAACTATGCCAGTCGGATAGTGTTCC | 1.55 | 2.02 | 0.17 | -0.0949 |
| GATGGACCCTATACGCGGCGTAGGCTCTGGCCCCTTTCCTCCTGCTCTTCCTCTGAGTGCCTCCACCCTTATTCACAGGCTCACTCTTGTCTCAGAGCCTCTGCCTAGACTGCTCTTCCCAGCCTCCAAACCCACTTTCCAGGGCTGATCTGCATTCACACTTCAATGTTCTTCTCTGATCACCCACCCACCCCACCTCAAGAACAATACTGCCAGTCGGATAGTGTTCC | 2.68 | 2.34 | 0.525 | -1.04 |
| GATGGACCCTATACGCGGCTCTAGACTCAGGGCTCCTCCCTCAACCAGATCCAGCCTGACAGCTCCTCTGTCTCCACCTGGCCTCCCTGCCAGGCCTCCTCAGAGTTAACAGCGGCCTGGCCTCACCCTTGGCCAGCAGTTGCAAGTCCAAACAGGCTTCGCCCACATTCCCTGGCTGCTCTCCAGCCCGCAGCAGAGACAACAAAGTTCTGCCAGTCGGATAGTGTTCC | 2.42 | 0.244 | 0.427 | -0.385 |
| GATGGACCCTATACGCGGCCTCCCACACACCCATGCACATGTACTCACACTAACACACGCACGCTCACACATGTACTGTCATACACACACGTACTCACACTCATGCACACACACACCCCTCACCCACAGGCACACCAAGAGCCCTGGGGGAGAAGAGTCTGAGAGGTTTCAGGCCCTGTTGCAGGATGTGTCTGCAGCCCCATTCTCTGTTGCCAGTCGGATAGTGTTCC | 2.2 | 0.925 | 0.674 | -0.441 |
| GATGGACCCTATACGCGGCACTAAAATACACAGCATCCCACCTTAAATCTTACTCAAGGGAGTTAATCCTATCGCCCATATGTGCATAAGACCAGAAGAATGGCTAATCTCCACCCCTTGCCTCCTTACAATACTAAACTCCCCACCCAGGGAGGAGCTTATTCACCATTTTGTTATCATGCCATGTGTGTACTACCATGATTTCTCACTTGCCAGTCGGATAGTGTTCC | 1.42 | 0.355 | 0.17 | -0.507 |
| GATGGACCCTATACGCGGCATCTGGATTCAAATCCTGGCCAGGCACAGCGGCTCATGCCTGTCATCTCAACAGTTTAGGAGGTCAAAGCGTGAGGGCAAGAGTTCAAGATCAGCCTGGGGAACACTGTGACACCCCGCCTGCACAAAAAAATTTAGCCGGGCATGATGGCACACGCCTATAGTCCTAGTTATGCAGGAGAACTGCTTCAGTGCCAGTCGGATAGTGTTCC | 1.45 | 0.679 | 0.0936 | -0.225 |
